Reference: publication PMC3464206
These are yes or no findings as the source states them, for the method shown. Binding seen in cells or lysates may run through a third protein. Some entries that bind do so weakly or less than the wild type.

The chains behind the UniProt entries cited, without tags or fusion partners.
UniProt Q6VH22: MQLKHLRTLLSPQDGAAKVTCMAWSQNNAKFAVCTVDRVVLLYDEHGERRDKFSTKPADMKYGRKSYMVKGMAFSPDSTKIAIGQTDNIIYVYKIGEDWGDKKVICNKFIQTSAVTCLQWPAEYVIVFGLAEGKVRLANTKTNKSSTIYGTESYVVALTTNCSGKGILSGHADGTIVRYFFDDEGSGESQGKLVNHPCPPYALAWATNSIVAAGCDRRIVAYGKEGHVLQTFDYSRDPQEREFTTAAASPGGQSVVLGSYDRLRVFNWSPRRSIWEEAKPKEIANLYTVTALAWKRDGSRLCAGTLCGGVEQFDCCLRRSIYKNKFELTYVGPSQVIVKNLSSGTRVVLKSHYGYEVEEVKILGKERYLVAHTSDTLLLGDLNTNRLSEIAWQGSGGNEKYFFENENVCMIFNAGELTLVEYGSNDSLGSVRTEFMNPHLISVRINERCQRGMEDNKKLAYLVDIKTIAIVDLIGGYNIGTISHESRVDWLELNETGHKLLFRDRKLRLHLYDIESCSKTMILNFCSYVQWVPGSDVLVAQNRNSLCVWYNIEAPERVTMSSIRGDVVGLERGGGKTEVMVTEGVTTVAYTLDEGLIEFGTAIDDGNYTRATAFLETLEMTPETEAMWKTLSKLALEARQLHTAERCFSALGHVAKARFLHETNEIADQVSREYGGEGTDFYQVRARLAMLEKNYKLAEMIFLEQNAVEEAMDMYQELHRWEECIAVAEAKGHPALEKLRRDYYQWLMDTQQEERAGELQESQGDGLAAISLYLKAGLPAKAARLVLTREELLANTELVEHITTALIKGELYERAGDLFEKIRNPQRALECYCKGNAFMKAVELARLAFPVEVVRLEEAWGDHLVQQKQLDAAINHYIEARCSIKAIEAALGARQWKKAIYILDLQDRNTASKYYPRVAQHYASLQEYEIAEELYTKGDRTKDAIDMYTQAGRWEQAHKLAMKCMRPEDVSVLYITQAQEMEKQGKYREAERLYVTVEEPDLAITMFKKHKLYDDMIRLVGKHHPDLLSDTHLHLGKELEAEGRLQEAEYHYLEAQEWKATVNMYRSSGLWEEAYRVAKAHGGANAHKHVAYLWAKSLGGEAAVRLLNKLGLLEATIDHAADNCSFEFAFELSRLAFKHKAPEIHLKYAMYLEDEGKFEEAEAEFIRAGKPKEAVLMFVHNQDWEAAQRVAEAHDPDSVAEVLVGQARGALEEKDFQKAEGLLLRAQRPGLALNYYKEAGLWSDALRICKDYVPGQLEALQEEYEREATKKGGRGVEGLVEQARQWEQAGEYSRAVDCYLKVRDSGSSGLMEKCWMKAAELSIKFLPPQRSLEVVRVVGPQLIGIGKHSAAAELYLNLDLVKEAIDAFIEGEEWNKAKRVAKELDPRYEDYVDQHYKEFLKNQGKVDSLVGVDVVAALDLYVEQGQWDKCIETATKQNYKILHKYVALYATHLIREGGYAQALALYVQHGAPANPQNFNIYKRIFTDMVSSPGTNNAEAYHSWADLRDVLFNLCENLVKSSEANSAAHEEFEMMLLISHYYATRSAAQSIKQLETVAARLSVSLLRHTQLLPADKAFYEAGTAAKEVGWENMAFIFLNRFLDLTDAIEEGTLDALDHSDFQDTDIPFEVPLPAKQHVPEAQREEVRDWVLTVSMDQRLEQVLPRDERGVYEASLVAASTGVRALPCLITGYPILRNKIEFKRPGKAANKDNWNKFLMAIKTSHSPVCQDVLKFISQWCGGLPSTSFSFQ
UniProt P50518: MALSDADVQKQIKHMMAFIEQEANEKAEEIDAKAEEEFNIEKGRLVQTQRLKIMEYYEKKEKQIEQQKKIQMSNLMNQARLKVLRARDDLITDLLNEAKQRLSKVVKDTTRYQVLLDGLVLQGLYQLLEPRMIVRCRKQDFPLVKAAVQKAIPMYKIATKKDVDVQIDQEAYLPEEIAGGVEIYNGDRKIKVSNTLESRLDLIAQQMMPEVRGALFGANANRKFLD
UniProt P48722: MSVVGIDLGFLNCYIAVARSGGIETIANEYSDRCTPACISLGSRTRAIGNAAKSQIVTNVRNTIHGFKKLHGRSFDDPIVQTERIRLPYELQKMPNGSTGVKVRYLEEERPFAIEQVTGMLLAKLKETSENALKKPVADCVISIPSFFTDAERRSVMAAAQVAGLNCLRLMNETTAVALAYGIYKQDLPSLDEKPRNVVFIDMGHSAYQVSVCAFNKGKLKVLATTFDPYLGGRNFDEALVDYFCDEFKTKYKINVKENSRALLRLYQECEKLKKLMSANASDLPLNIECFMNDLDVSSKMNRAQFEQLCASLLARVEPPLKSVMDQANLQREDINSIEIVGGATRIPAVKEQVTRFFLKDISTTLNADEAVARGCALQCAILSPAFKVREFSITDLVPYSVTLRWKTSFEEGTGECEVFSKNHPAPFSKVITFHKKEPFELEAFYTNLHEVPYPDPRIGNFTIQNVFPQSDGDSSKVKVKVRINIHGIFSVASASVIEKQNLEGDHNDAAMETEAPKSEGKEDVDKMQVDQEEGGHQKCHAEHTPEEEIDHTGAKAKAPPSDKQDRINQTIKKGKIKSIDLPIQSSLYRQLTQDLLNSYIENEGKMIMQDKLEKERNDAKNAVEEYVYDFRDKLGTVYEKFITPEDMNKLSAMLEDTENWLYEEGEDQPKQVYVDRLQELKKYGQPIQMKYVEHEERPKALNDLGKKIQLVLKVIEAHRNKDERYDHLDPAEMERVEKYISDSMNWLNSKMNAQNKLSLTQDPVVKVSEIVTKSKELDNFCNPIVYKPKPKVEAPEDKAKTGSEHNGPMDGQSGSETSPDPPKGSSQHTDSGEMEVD
UniProt P00342: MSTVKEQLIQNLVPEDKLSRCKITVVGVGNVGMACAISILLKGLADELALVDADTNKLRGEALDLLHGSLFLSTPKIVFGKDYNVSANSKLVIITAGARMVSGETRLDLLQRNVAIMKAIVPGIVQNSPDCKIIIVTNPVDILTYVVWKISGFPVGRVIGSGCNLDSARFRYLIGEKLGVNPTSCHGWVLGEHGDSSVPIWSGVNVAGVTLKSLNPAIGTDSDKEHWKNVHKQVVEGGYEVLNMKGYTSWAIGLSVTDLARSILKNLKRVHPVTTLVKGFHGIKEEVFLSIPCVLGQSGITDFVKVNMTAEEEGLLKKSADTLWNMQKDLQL

Assays:
[1] = molecular target: IFT172 (mouse (endogenous in testis)) (UniProt Q6VH22); test: co-IP; 1 mg adult mouse testis lysate with 4 ug of IFT172, IFT81 or IFT27 antibody, with or without exogenous GTP; protein G magnetic beads; Western blot for RABL2; isotype-matched immunoglobulin as control
[2] = molecular target: T1, IFT27 (mouse (endogenous in testis)) (UniProt Q9D0P8); test: as above
T1 sequence: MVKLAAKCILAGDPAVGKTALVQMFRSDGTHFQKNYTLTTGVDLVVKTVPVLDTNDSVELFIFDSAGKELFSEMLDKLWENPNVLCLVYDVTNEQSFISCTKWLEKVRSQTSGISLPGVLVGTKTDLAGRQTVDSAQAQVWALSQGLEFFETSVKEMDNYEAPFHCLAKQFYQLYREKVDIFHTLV

[3] = molecular target: T2, IFT81 (mouse (endogenous in testis)) (UniProt O35594); test: as above
T2 sequence: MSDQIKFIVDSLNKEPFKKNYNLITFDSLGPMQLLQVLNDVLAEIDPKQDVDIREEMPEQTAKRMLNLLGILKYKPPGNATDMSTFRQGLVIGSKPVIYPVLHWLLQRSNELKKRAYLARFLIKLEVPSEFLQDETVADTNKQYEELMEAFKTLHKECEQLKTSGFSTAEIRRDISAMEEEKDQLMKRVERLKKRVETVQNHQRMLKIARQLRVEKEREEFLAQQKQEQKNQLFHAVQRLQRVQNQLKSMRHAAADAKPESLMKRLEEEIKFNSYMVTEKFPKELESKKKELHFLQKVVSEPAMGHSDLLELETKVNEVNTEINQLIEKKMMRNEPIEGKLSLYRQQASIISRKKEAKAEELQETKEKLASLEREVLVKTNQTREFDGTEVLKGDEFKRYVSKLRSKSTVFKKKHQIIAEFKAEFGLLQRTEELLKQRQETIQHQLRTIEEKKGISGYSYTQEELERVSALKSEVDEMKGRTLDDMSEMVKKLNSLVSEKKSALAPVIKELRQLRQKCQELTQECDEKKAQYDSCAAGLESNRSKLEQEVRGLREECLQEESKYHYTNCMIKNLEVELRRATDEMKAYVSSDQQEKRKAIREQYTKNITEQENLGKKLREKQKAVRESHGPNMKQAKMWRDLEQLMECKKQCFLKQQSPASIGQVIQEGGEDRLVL

[4] = molecular target: ATP6V1E1 (mouse (endogenous in testis)) (UniProt P50518); test: co-IP; 2 mg adult mouse testis lysate with 4 ug antibody against the effector protein, supplemented with 100 uM GTPgammaS; protein G magnetic beads, eluted with 0.1 M glycine pH 2.7; Western blot for RABL2; matched immunoglobulin as control
[5] = molecular target: T3, HK1 (mouse (endogenous in testis)) (UniProt P17710); test: as above
T3 sequence: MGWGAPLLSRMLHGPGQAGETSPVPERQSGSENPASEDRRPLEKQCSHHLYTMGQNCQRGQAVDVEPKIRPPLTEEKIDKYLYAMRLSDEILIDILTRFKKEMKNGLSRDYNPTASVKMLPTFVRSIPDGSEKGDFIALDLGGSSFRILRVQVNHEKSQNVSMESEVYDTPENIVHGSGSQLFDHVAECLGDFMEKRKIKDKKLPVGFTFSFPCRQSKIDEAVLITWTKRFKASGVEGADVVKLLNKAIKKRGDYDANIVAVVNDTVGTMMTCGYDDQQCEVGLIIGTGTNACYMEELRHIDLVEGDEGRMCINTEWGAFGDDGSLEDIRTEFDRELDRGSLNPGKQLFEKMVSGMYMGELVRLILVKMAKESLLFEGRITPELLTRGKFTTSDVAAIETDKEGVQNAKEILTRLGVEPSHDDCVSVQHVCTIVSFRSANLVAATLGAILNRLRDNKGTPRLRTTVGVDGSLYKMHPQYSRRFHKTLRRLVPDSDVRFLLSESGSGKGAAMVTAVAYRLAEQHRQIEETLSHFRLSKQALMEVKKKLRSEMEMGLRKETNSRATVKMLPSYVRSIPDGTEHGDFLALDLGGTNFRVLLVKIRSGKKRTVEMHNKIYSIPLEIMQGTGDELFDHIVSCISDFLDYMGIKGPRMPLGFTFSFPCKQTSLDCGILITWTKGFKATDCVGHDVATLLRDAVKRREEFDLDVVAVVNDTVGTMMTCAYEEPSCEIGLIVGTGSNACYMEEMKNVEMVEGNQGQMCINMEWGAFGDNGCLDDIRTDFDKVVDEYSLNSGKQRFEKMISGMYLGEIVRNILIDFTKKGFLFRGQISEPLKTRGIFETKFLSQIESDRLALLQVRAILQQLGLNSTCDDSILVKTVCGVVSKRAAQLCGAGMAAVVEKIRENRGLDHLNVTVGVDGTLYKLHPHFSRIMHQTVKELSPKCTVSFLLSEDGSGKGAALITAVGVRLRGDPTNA

[6] = molecular target: HSPA4L (mouse (endogenous in testis)) (UniProt P48722); test: as above
[7] = molecular target: LDHC (mouse (endogenous in testis)) (UniProt P00342); test: as above
[8] = molecular target: T4, microtubule plus end trafficking protein EB1 (mouse (endogenous in testis)) (UniProt Q61166); test: as above
T4 sequence: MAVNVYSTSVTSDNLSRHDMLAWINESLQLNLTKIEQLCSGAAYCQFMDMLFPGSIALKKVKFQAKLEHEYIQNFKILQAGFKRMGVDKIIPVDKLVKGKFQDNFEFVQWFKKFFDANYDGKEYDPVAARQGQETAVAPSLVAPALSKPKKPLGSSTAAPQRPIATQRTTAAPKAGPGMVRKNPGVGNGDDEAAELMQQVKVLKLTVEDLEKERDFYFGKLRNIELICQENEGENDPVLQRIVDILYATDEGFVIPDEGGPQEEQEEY

[9] = molecular target: T5, recombinant RABL2 (isoform 2), conjugated to agarose (mouse) (UniProt E9Q9D5); test: pull-down; additional GTP-RABL2 and GDP-RABL2 affinity column eluates from adult mouse testis extracts, Western blotting for candidate effector proteins; only the target purified
T5 sequence: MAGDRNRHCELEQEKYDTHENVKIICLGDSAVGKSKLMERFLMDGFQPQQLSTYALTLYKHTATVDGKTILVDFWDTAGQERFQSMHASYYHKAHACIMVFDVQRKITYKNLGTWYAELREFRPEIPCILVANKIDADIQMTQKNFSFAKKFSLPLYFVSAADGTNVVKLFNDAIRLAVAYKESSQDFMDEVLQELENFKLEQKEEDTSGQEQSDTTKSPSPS

Measured: binding

B1: RAB-like 2 (RABL2), endogenous in mouse testis (protein, UniProt E9Q9D5-2 1-223)
chain: MAGDRNRHCELEQEKYDTHENVKIICLGDSAVGKSKLMERFLMDGFQPQQLSTYALTLYKHTATVDGKTILVDFWDTAGQERFQSMHASYYHKAHACIMVFDVQRKITYKNLGTWYAELREFRPEIPCILVANKIDADIQMTQKNFSFAKKFSLPLYFVSAADGTNVVKLFNDAIRLAVAYKESSQDFMDEVLQELENFKLEQKEEDTSGQEQSDTTKSPSPS
not listed: [9]
binds: all other assays above

B2: microtubule plus end trafficking protein EB1 (protein, UniProt Q61166 1-268)
chain: MAVNVYSTSVTSDNLSRHDMLAWINESLQLNLTKIEQLCSGAAYCQFMDMLFPGSIALKKVKFQAKLEHEYIQNFKILQAGFKRMGVDKIIPVDKLVKGKFQDNFEFVQWFKKFFDANYDGKEYDPVAARQGQETAVAPSLVAPALSKPKKPLGSSTAAPQRPIATQRTTAAPKAGPGMVRKNPGVGNGDDEAAELMQQVKVLKLTVEDLEKERDFYFGKLRNIELICQENEGENDPVLQRIVDILYATDEGFVIPDEGGPQEEQEEY
binds: [9]
